# Paper PMC3629153
# These are yes or no findings as the source states them, for the method shown. Binding seen in cells or lysates may run through a third protein. A result given as binding can be weak or reduced; the word gives no strength.
# Target: T1, tetraspanin CD81 (human (endogenous in MDA-MB-231)) (UniProt P60033)
# T1 sequence: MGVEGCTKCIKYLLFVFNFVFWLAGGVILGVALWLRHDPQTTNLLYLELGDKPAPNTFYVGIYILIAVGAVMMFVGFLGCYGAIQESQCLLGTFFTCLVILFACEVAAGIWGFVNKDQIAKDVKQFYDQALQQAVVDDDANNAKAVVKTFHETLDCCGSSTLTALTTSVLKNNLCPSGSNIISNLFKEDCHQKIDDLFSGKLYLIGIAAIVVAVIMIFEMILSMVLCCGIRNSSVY
# Experiment: co-IP; MDA-MB-231 wild type cells (also CD9/CD81si and CD151RX cells) lysed in 1% Brij 96V/Brij 99 (1:1), 20 mM HEPES pH 7.2, 150 mM NaCl, 1 mM MgCl2; CD9, CD81 or CD151 immunoprecipitated (5 µg/ml antibody, protein G sepharose); blot for the α3 integrin subunit
substance,measurement,value
α3β1 integrin (human (endogenous in MDA-MB-231)) (complex),binding,binds weakly
